Patent US10066004B2 (ARIZONA CANCER THERAPEUTICS, LLC, priority 2010, dated 2018)
At least one peptide structure holds a part that was inferred or is arguable (an end, a ring closure or a residue). No end group written: not given here.

Chains of the proteins cited; added tags and fusions are not shown. Residues count along the entry.
UniProt P21860, 20-1342: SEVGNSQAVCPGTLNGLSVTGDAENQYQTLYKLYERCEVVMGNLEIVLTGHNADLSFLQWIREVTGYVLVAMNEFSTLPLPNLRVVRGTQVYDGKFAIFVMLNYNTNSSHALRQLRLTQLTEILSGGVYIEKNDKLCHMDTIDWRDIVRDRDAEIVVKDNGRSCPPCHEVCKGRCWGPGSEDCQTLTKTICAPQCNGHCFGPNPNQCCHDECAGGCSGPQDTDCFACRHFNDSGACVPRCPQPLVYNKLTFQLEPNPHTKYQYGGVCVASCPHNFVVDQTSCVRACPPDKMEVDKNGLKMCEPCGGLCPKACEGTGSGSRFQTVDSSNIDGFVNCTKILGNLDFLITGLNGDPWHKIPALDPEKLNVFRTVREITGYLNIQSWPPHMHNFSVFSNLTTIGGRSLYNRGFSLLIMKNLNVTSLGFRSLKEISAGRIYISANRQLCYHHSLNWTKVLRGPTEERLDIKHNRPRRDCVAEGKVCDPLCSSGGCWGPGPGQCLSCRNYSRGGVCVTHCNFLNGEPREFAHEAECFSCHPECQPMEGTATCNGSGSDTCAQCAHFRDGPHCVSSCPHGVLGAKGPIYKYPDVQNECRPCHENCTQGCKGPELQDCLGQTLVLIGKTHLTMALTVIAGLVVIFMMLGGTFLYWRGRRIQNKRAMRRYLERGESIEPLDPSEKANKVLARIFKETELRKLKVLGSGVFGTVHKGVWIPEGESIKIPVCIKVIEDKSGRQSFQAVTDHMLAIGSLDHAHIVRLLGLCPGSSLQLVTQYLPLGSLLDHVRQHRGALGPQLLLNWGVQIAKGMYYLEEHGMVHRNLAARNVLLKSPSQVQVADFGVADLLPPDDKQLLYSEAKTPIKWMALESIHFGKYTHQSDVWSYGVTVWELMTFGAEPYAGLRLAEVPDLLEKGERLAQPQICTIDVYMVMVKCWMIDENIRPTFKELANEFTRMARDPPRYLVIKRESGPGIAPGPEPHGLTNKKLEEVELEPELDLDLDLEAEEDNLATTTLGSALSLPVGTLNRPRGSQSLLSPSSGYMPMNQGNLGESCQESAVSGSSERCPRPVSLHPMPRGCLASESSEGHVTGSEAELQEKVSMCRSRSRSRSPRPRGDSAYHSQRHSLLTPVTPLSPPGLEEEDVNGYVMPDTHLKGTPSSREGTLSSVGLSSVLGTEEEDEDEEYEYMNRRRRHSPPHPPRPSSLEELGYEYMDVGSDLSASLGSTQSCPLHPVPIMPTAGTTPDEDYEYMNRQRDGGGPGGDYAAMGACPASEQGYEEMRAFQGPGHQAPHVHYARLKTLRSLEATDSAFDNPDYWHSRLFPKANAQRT

Experiments:
MDA-MB-468 cells [1] = assay: Membrane blebbing / cell morphology, bright field imaging; type: cell-based; details: EJ1 20 μmol/l, 15 minutes
Method: (§1) (a) MDA-MB-468 cells were treated with either 20 μmol/l CP (A-D) or 20 μmol/l EJ1 (E-H) for 0 minutes (A, E), 15 minutes (B, F), 60 minutes (C, G), or 16 hours (D, H). […] (b) BxPC3 cells were serum starved overnight, then treated with 20 μmol/l EJ1 and 50 ng/ml Texas-Red-labeled EGF, and imaged for 30 minutes with an Olympus IX71 deconvolution microscope. Panels A-F are bright field images, D′-F′ are red channel images (Texas-Red-labeled EGF). […] (c) Diagram depicts Ca^2+/CaM-regulated signaling pathway, and inhibitors acting at different targets are indicated. (d) MDA-MB-468 cells were pretreated with 50 μmol/l W-13 (D-F), 10 μmol/l ML-7 (G-I), or 10 μmol/l Y-27632 (J-L) in complete medium at 37° C. for 30 minutes and then treated with vehicle, 20 μmol/l CP, or 20 μmol/l EJ1 in combination with W-13, ML-7, or Y-27632 in complete medium at 37° C. for 15 minutes. Images represent the bright field images. […] Error bars, mean±SD. (f) MDA-MB-468 cells were either in serum-free medium (SF) or stimulated with 100 ng/ml EGF (EGF) and then incubated with water (Vehicle), 20 μmol/l CP, 20 μmol/l EJ1, 2 μmol/l ionomycin, 50 μmol/l W-13, 100 μmol/l KN-93, or EJ1 in combination with ionomycin for 15 minutes. Lysates were immunoblotted with antibodies as indicated. […] Error bars, mean±SD. […]

ERBB2 = biological target: T1, ERBB2 (Homo sapiens, UniProt P04626); assay: EGF-induced trans-phosphorylation of ERBB2, western blot (BxPC3 cells); type: cell-based; details: 20 μmol/l
T1 construct: endogenous in cells; host or cells: BxPC3

MDA-MB-468 cells [2] = details: MDA-MB-468, 3 days of treatment (FIG. 6)
Method: Inhibitor peptides were evaluated on their ability to inhibit growth of triple-negative breast cancer cells MDA-MB-468 (20 uM peptide treatment). […] SEQ ID NO: 13 is […] SEQ ID NO: 14 is […] SEQ ID NO: 15 is […] SEQ ID NO: 16 is […] SEQ ID NO: 17 is […] SEQ ID NO: 18 is […] SEQ ID NO: 19 is […] SEQ ID NO: 20 is […] SEQ ID NO: 21 is […] SEQ ID NO: 22 is […] SEQ ID NO: 23 is […] SEQ ID NO: 24 is […] SEQ ID NO: 25 is […]
Peptide designations are indicated in the right column. Changes from EJ1 in EJ2-11 are denoted in the second column from the right. (d-j) Cell lines were treated daily with 20 μmol/l EJ1, 20 μmol/l CP, or vehicle (water) for 3 days unless otherwise noted, and cell viability was determined by the MTT assay. […]
To do this, we created cell-penetrating peptides to act as dominant-negative “decoys,” thereby inhibiting endogenous jxm interactions. […] Next, the effect of peptide treatment on cell viability was analyzed on the breast cancer cell line MDA-MB-468 by MTT (3-[4,5-dimethylthiazol-2-yl]-2,5-diphenyl tetra-zolium bromide) analysis after 3 days of treatment.
Protein lysate preparation, immunoprecipitation, and western blotting were performed as described previously. […] Cells were analyzed both by the MTT assay following manufacturer's instructions (Sigma) and using a U-Quant Spectrophotometer (Bio-TEK Instruments, Winooski, Vt.).

MDA-MB-468 cells [3] = assay: Mitochondrial membrane potential (MMP), JC-1 dye; type: cell-based; details: JC-1, 2 hours treatment, 20 μmol/l
mitochondria = assay: Mitochondrial morphology and EJ1 localization, MitoTracker imaging; type: cell-based
NIH3T3 cells = assay: MTT viability of NIH3T3 cells expressing Rac1-WT or Rac1-Q61L; type: cell-based; details: NIH3T3, 20 μmol/l EJ1
ERBB3 = biological target: T2, ERBB3 (Homo sapiens, UniProt P21860); assay: EGF-induced trans-phosphorylation of ERBB3, western blot; type: cell-based; details: 20 μmol/l
T2 construct: (a, c) MDA-MB-468 cells or (b) BxPC3 cells were treated; endogenous in cells; host or cells: MDA-MB-468

CaMKII = CaMKII phosphorylation, immunoblot in MDA-MB-468 cells; type: cell-based; details: MDA-MB-468, EGF or ionomycin, 15 minutes
Method: as §1

[4] = tested on: MDA-MB-468 and BxPC3 cells; assay: Propidium iodide and Annexin V staining, flow cytometry; type: cell-based; details: 4 hours, compared with CP
ERBB1 [5] = biological target: T3, ERBB1 (Homo sapiens, UniProt P00533); assay: Pull down of biotinylated EJ1 with ERBB1; type: binding; details: biotinylated EJ1, preferentially in the absence of EGF
T3 construct: which preferentially occurred in the absence of EGF treatment; endogenous in cells

HMGB1 = assay: Release of nuclear protein HMGB1 into culture media (necrosis); type: cell-based; details: MDA-MB-468 culture media
[6] = tested on: Chinese hamster ovary (CHO) cells; assay: Cell viability of immortalized CHO cells with low endogenous ERBB levels; type: cell-based
[7] = tested on: microtubule-associated protein 1 light chain 3; assay: Autophagy, conversion of microtubule-associated protein 1 light chain 3-I or II; type: cell-based
ERBB1 [8] = biological target: T3, ERBB1; assay: EGF-induced phosphorylation of ERBB1, western blot; type: cell-based; details: MDA-MB-468 and BxPC3 cells, 20 μmol/l
ERBB1/ERBB3 heterodimers = biological target: T4, ERBB1/ERBB3 heterodimers (Homo sapiens, UniProt P00533+P21860); assay: Co-immunoprecipitation of ERBB1/ERBB3 heterodimers; type: cell-based; details: even in the absence of serum
T4 construct: MDA-MB-468 cells were treated similarly, but without cross-linker, lysed, and immunoprecipitated (ERBB1 Ab-13); endogenous in cells; host or cells: MDA-MB-468

ERBB1 [9] = biological target: T3, ERBB1; assay: DMS cross-linking / ERBB1 dimerization in MDA-MB-468 cells; type: cell-based; details: MDA-MB-468, EGF, nonreducible cross-linker
MDA-MB-468 cells [10] = assay: Intracellular ROS by flow cytometry, DCFH-DA; type: cell-based; details: 20 μmol/l EJ1, 0.5 mmol/l NAC
Method: (a) MDA-MB-468 cells were incubated in serum-free media with 200 nmol/l MitoTracker Red CMXRos and 5 μg/ml Hoechst 33342 nuclear stain, followed by either 20 μmol/l CP (A-B′) or 20 μmol/l EJ1 (C-D′), and imaged at 0 minutes (A, A′; and C, C′) or at 5 minutes (B, B′; and D, D′). (b) MDA-MB-468 cells were incubated with 1 μmol/l JC-1, followed by 20 μmol/l CP, 20 μmol/l EJ1, or 50 μmol/l CCCP. Results were calculated as the ratio of the 514/590 nm to 514/529 nm fluorescences and the ratio for CP-treated sample was set as 1. *P<0.05, Student's t-test. Error bars, mean±SD. (c) T47D cells were treated with MitoTracker (shown in D-F and F′) and Hoechst 33342 as in (a) and incubated with 20 μmol/l FITC-labeled EJ1 (shown in A-C and C′). […] Cells were then sorted by flow cytometer and analyzed by Cellquest Pro 4.0 software. The results are expressed as the percentage of DCFH fluorescence-positive cells. *P<0.05, Student's t-test. […]
Generation of intracellular ROS was evaluated by flow cytometry using the 2′,7′-dichlorofluorescein diacetate probe (Invitrogen). Fluorescent cells were analyzed by a FACScan flow cytometer (BD Biosciences) at the Flow Cytometry Shared Service in the Arizona Cancer Center, and the excitation/emission wavelengths were set at 488 and 525 nm, respectively.

PARP = PARP cleavage (apoptosis), western blot in MDA-MB-468 and BxPC3 cells; type: cell-based; details: MDA-MB-468 and BxPC3, 2, 4 and 6 hours, compared with CP

In the case of YARAAARQARAFMRRRHIVRKRTLRRLLQERE [EJ1], the membrane blebbing (MDA-MB-468 cells [1]) is reported as “formed large membrane protrusions or blebs”, the “trans-phosphorylation of ERBB2 in response to EGF” value (ERBB2) is reported as “inhibited” and the “effect on cell viability (MTT)” value (MDA-MB-468 cells [2]) is reported as “reduction in viability”. The “mitochondrial membrane potential (MMP)” value (MDA-MB-468 cells [3]) was “significant loss of MMP”, the “colocalization of peptide with mitochondria” value (mitochondria; FITC-labeled EJ1, MDA-MB-468 and T47D) was “increased colocalization” and the mitochondrial morphology (mitochondria; MDA-MB-468, Mitotracker, 20 μmol/l) was “enlarged and rounded”. For the same sequence, the “EJ1-induced cell death with constitutively active Rac1-Q61L vs Rac1-WT” value (NIH3T3 cells) was “significantly rescued”, the “trans-phosphorylation of ERBB3 in response to EGF” value (ERBB3) was “inhibited” and the CaMKII phosphorylation (CaMKII) was “suppressed”. For the same sequence, the “percentage of Annexin V-positive cells” value [4] was “increase in the percentage of Annexin V-positive cells”, the “interaction between ERBB1 and EJ1” value (ERBB1 [5]) was “direct interaction” and the “HMGB1 in cell media” value (HMGB1) was “detectable HMGB1”. For the same sequence, the “effect on viability of CHO cells” value [6] was “no effect on the viability”, the induction of autophagy [7] was “inducing some level of autophagy” and the “EGF-induced phosphorylation of ERBB1” value (ERBB1 [8]) was “significantly suppressed”. The “formation of ERBB1/ERBB3 heterodimers” value (ERBB1/ERBB3 heterodimers) was “increase in the formation of ERBB1/ERBB3 heterodimers”, the “formation of ERBB1 multimers” value (ERBB1 [9]) was “induced the formation of high-molecular-weight ERBB1 multimers” and the “intracellular ROS levels (DCF fluorescence)” value (MDA-MB-468 cells [10]) was “increased intracellular ROS levels”. For the same sequence, the PARP cleavage (PARP) was “strong induction”.
